In assay [1] the target is full-length hNKCC1 tagged with flag and YFP, W732C (human) (UniProt P55011). Briefly: cross-linking; HEK293 cells treated with 200 uM MTS-3-MTS (1,3-propanediyl bismethanethiosulfonate) in regular medium for 10 min; MTSET as control; blot.
The target is the same in assay [2]. Briefly: cross-linking; spontaneous disulfide cross-linking of single-cysteine mutants in HEK293 cells, without cupric phenanthroline; lysate on 7.5% Tris-glycine gel, blot with T4 antibody.
The target is the same in assay [3]. Briefly: cross-linking; HEK293 cells treated with 1 mM I2 in regular medium for 2 min; quenched with EDTA + N-ethyl maleimide; blot.
Assay [4] deals with full-length hNKCC1 tagged with flag and YFP, A735C (human) (UniProt P55011). Briefly: cross-linking; HEK293 cells treated with 200 uM MTS-3-MTS (1,3-propanediyl bismethanethiosulfonate) in regular medium for 10 min; MTSET as control; blot.
The target is the same in assay [5]. Description: cross-linking; oxidative cross-linking of single-cysteine mutants in HEK293 cells with 1.5 mM cupric phenanthroline in regular medium for 10-40 min before lysis; blot with T4 antibody.
Assay [6] has the same target. Briefly: cross-linking; HEK293 cells treated with 1 mM I2 in regular medium for 2 min; quenched with EDTA + N-ethyl maleimide; blot.
Assay [7] deals with full-length hNKCC1 tagged with flag and YFP, W732C in the C723S-C724V double mutation (human) (UniProt P55011). Description: cross-linking; spontaneous disulfide cross-linking of single-cysteine mutants in HEK293 cells, without cupric phenanthroline; lysate on 7.5% Tris-glycine gel, blot with T4 antibody.
The target of assay [8] is full-length hNKCC1 tagged with flag and YFP, W733C (human) (UniProt P55011). Briefly: cross-linking; HEK293 cells treated with 200 uM MTS-3-MTS (1,3-propanediyl bismethanethiosulfonate) in regular medium for 10 min; MTSET as control; blot.
The target is the same in assay [9]. Description: cross-linking; oxidative cross-linking of single-cysteine mutants in HEK293 cells with 1.5 mM cupric phenanthroline in regular medium for 10-40 min before lysis; blot with T4 antibody.
Assay [10] has the same target. Briefly: cross-linking; HEK293 cells treated with 1 mM I2 in regular medium for 2 min; quenched with EDTA + N-ethyl maleimide; blot.
The target in assay [11] is full-length hNKCC1 tagged with flag and YFP, F728C (human) (UniProt P55011). Description: cross-linking; HEK293 cells treated with 200 uM MTS-3-MTS (1,3-propanediyl bismethanethiosulfonate) in regular medium for 10 min; MTSET as control; blot.
Assay [12] has the same target. Description: cross-linking; oxidative cross-linking of single-cysteine mutants in HEK293 cells with 1.5 mM cupric phenanthroline in regular medium for 10-40 min before lysis; blot with T4 antibody.
The target is the same in assay [13]. Description: cross-linking; HEK293 cells treated with 1 mM I2 in regular medium for 2 min; quenched with EDTA + N-ethyl maleimide; blot.
Assay [14] deals with T1, mouse KCC2 (mKCC2a, SLC12A5), twin-Strep tagged, as prepared for cryo-EM (mouse), Q91V14.
T1 chain: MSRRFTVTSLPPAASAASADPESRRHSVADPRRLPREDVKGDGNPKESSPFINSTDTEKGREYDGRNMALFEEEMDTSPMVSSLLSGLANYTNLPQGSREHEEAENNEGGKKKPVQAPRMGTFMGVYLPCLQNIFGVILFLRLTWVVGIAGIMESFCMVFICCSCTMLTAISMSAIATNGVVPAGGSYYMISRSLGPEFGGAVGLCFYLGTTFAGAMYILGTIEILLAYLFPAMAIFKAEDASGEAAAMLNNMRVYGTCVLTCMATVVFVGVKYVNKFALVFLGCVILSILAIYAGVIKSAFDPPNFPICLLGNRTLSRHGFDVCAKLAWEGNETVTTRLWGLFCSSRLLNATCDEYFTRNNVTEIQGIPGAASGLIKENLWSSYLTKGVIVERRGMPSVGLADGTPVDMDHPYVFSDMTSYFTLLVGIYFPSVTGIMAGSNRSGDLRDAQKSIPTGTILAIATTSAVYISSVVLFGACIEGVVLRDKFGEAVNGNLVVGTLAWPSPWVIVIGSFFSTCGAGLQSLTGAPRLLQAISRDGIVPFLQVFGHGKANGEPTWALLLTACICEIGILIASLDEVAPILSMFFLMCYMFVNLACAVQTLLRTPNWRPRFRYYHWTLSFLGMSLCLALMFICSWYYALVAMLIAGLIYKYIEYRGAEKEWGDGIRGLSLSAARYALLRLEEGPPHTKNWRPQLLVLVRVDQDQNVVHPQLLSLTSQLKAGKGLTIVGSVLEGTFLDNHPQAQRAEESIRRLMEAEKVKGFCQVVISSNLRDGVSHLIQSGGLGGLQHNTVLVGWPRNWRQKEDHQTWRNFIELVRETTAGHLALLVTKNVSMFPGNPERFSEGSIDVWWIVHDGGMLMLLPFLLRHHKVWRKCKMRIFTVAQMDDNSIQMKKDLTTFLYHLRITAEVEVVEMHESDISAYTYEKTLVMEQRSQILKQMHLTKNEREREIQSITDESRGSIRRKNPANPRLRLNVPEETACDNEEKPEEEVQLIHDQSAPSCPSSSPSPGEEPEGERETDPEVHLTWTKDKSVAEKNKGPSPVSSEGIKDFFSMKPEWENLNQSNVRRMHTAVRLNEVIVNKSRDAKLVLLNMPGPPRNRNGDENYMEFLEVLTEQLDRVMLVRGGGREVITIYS
Description: cryo-EM structure; single-particle cryo-EM of the purified transporter in 20 mM HEPES pH 7.4, 150 mM NaCl, 0.1% digitonin, ~10 mg/ml; C2 symmetry imposed; both purified. Conditions: remark: other sources report otherwise.

Changes are numbered by the printed parent chain. Names and notes keep the numbering of the source. These are yes or no findings as the source states them, for the method shown. For some assays here: Binding seen in cells or lysates may run through a third protein. Some results given as binding are weak or reduced against the parent protein; the word gives no strength. Tags and fused reporters may be left off the sequences shown.

B1: full-length hNKCC1 tagged with flag and YFP, W732C (protein, UniProt P55011 1-1212)
chain: MEPRPTAPSSGAPGLAGVGETPSAAALAAARVELPGTAVPSVPEDAAPASRDGGGVRDEGPAAAGDGLGRPLGPTPSQSRFQVDLVSENAGRAAAAAAAAAAAAAAAGAGAGAKQTPADGEASGESEPAKGSEEAKGRFRVNFVDPAASSSAEDSLSDAAGVGVDGPNVSFQNGGDTVLSEGSSLHSGGGGGSGHHQHYYYDTHTNTYYLRTFGHNTMDAVPRIDHYRHTAAQLGEKLLRPSLAELHDELEKEPFEDGFANGEESTPTRDAVVTYTAESKGVVKFGWIKGVLVRCMLNIWGVMLFIRLSWIVGQAGIGLSVLVIMMATVVTTITGLSTSAIATNGFVRGGGAYYLISRSLGPEFGGAIGLIFAFANAVAVAMYVVGFAETVVELLKEHSILMIDEINDIRIIGAITVVILLGISVAGMEWEAKAQIVLLVILLLAIGDFVIGTFIPLESKKPKGFFGYKSEIFNENFGPDFREEETFFSVFAIFFPAATGILAGANISGDLADPQSAIPKGTLLAILITTLVYVGIAVSVGSCVVRDATGNVNDTIVTELTNCTSAACKLNFDFSSCESSPCSYGLMNNFQVMSMVSGFTPLISAGIFSATLSSALASLVSAPKIFQALCKDNIYPAFQMFAKGYGKNNEPLRGYILTFLIALGFILIAELNVIAPIISNFFLASYALINFSVFHASLAKSPGWRPAFKYYNMWISLLGAILCCIVMFVINCWAALLTYVIVLGLYIYVTYKKPDVNWGSSTQALTYLNALQHSIRLSGVEDHVKNFRPQCLVMTGAPNSRPALLHLVHDFTKNVGLMICGHVHMGPRRQAMKEMSIDQAKYQRWLIKNKMKAFYAPVHADDLREGAQYLMQAAGLGRMKPNTLVLGFKKDWLQADMRDVDMYINLFHDAFDIQYGVVVIRLKEGLDISHLQGQEELLSSQEKSPGTKDVVVSVEYSKKSDLDTSKPLSEKPITHKVEEEDGKTATQPLLKKESKGPIVPLNVADQKLLEASTQFQKKQGKNTIDVWWLFDDGGLTLLIPYLLTTKKKWKDCKIRVFIGGKINRIDHDRRAMATLLSKFRIDFSDIMVLGDINTKPKKENIIAFEEIIEPYRLHEDDKEQDIADKMKEDEPWRITDNELELYKTKTYRQIRLNELLKEHSSTANIIVMSLPVARKGAVSSALYMAWLEALSKDLPPILLVRGNHQSVLTFYS
B1: the binding result in assay [1], in assay [2] and in [3] was “binds” throughout.

B2: full-length hNKCC1 tagged with flag and YFP, A735C (protein, UniProt P55011 1-1212)
chain: B1 chain with C732W, A735C
For the molecule B2, the binding result in [4], in [5] and in assay [6] was “binds” each time.

B3: full-length hNKCC1 tagged with flag and YFP, W732C in the C723S-C724V double mutation (protein, UniProt P55011 1-1212)
chain: B1 chain with C723S, C724V
On to B3, for which, in assay [7], the binding result is “binds”.

B4: full-length hNKCC1 tagged with flag and YFP, W733C (protein, UniProt P55011 1-1212)
chain: B1 chain with C732W, W733C
As for B4, the binding entry in [8], in assay [9] and in [10] was “binds” throughout.

B5: full-length hNKCC1 tagged with flag and YFP, F728C (protein, UniProt P55011 1-1212)
chain: B1 chain with F728C, C732W
On to B5, for which the binding result in assay [11], in [12] and in assay [13] was “binds” throughout.

B6: mouse KCC2 (mKCC2a, SLC12A5), twin-Strep tagged, as prepared for cryo-EM, Q91V14 1-1138 (natural protein)
chain: T1 chain
modifications: here or on the partner: phosphorylation at T929 and T1029 (confirmed by mass spectrometry); phosphorylation at T929 and T1029 (confirmed by mass spectrometry)
With B6, in [14], the binding result was “binds”.

Source of the values: publication PMC7889885.
